Results deposited as PubChem BioAssay AID1053208 (Peter MacCallum Cancer Centre, 2014)
This is an unselected part of about 17,000 deposited reagents. In the full data, 788 (4.7%) are marked active. 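Calls rest on z-score classes alone; an extra cut-off of viability at most 70% of control was not applied to them.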 The numbers tell different reagents against one gene apart. Not all columns of the deposit are shown. Reagent sequences are not shown.

- Test: 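Find knock-downs that sensitise mouse osteosarcoma cells to doxorubicin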 (primary screen)
- System: mouse osteosarcoma cells, early-passage culture from an engineered mouse model of fibroblastic bone tumour
- Knock-down reagent: siRNA pool against mouse genes, 40 nM
- Timing: about 120 h (48 h before drug, then 72 h with drug)
- Treatment: doxorubicin 100 nM for 72 h, roughly 30-40% inhibitory dose
- Read-out: 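Luminescent ATP signal taken as viability with or without 100 nM doxorubicin for 72 h; mean of two wells set against non-targeting siRNA and turned into robust z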
- Direction: viability z-score with doxorubicin: higher = more viable cells under doxorubicin; viability z-score without drug: higher = more viable cells with knock-down alone
- Call rule: 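a pool counts as active when its viability z-score with doxorubicin is -2 or below and its z-score without drug lies between -2 and 2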

For Zfp36l2 (zinc finger protein 36, C3H type-like 2), how do the results read?
combined z-score class: no change with or without drug; viability z-score with doxorubicin: 0.22; viability z-score without drug: 1.69; Outcome: inactive

How did the screen score D930031A20Rik (RIKEN cDNA D930031A20 gene)?
combined z-score class: no change with or without drug; viability z-score with doxorubicin: -1.12; viability z-score without drug: -0.51; Outcome: inactive

For D930046H04Rik (RIKEN cDNA D930046H04 gene), how do the results read?
combined z-score class: high cell count without drug only; viability z-score with doxorubicin: -0.67; viability z-score without drug: 2.19; Outcome: inactive

For Psme2, what does the deposit list?
combined z-score class: no change with or without drug; viability z-score with doxorubicin: 0.9; viability z-score without drug: 0.84; Outcome: inactive

What is on record for Or10d5 (olfactory receptor family 10 subfamily D member 5)?
combined z-score class: no change with or without drug; viability z-score with doxorubicin: -1.91; viability z-score without drug: 0.34; Outcome: inactive

How did the screen score Serping1 (serine (or cysteine) peptidase inhibitor, clade G, member 1)?
combined z-score class: high cell count with and without drug; viability z-score with doxorubicin: 2.59; viability z-score without drug: 2.36; Outcome: inactive

What is on record for Pdk3 (pyruvate dehydrogenase kinase, isoenzyme 3)?
combined z-score class: no change with or without drug; viability z-score with doxorubicin: 0.22; viability z-score without drug: -1.18; Outcome: inactive

What did the screen give for D830014E11Rik (RIKEN cDNA D830014E11 gene)?
combined z-score class: no change with or without drug; viability z-score with doxorubicin: -0.9; viability z-score without drug: 0.67; Outcome: inactive

What did the screen give for Ccnb3 (cyclin B3)?
combined z-score class: no change with or without drug; viability z-score with doxorubicin: 0.9; viability z-score without drug: 0.17; Outcome: inactive

With Ccdc121 (coiled-coil domain containing 121), what does the deposit list?
combined z-score class: no change with or without drug; viability z-score with doxorubicin: 0.79; viability z-score without drug: 1.18; Outcome: inactive

What did the screen give for Nr2c2 (nuclear receptor subfamily 2, group C, member 2)?
combined z-score class: no change with or without drug; viability z-score with doxorubicin: 0.9; viability z-score without drug: 1.52; Outcome: inactive

What is on record for Sipa1l3 (signal-induced proliferation-associated 1 like 3)?
combined z-score class: no change with or without drug; viability z-score with doxorubicin: 1.57; viability z-score without drug: 0.84; Outcome: inactive

For Vsig2 (V-set and immunoglobulin domain containing 2), how do the results read?
combined z-score class: no change with or without drug; viability z-score with doxorubicin: -0.67; viability z-score without drug: 0.67; Outcome: inactive

What is on record for Psmb1 (proteasome (prosome, macropain) subunit, beta type 1)?
combined z-score class: low cell count with and without drug; viability z-score with doxorubicin: -7.31; viability z-score without drug: -8.77; Outcome: inactive

Which result is listed for Tceanc2 #1?
combined z-score class: no change with or without drug; viability z-score with doxorubicin: -1.46; viability z-score without drug: 0.51; Outcome: inactive

What is on record for Tceanc2 #2?
combined z-score class: no change with or without drug; viability z-score with doxorubicin: -0.11; viability z-score without drug: -1.01; Outcome: inactive

How did the screen score 2310022A10Rik (RIKEN cDNA 2310022A10 gene)?
combined z-score class: no change with or without drug; viability z-score with doxorubicin: 0.22; viability z-score without drug: 0.84; Outcome: inactive

What did the screen give for Coq9 (coenzyme Q9)?
combined z-score class: no change with or without drug; viability z-score with doxorubicin: -0.9; viability z-score without drug: 1.35; Outcome: inactive

What is on record for Dpysl5 (dihydropyrimidinase-like 5)?
combined z-score class: no change with or without drug; viability z-score with doxorubicin: -0.45; viability z-score without drug: 0.51; Outcome: inactive

What did the screen give for Stfa2l1 (stefin A2 like 1)?
combined z-score class: no change with or without drug; viability z-score with doxorubicin: 0.45; viability z-score without drug: -0.17; Outcome: inactive

With Rbm39 (RNA binding motif protein 39), what was measured?
combined z-score class: low cell count with doxorubicin only; viability z-score with doxorubicin: -3.26; viability z-score without drug: -1.01; Outcome: active

What did the screen give for Entr1 (endosome associated trafficking regulator 1)?
combined z-score class: no change with or without drug; viability z-score with doxorubicin: -1.01; viability z-score without drug: -1.52; Outcome: inactive

With Mettl2 (methyltransferase 2, methylcytidine), what does the deposit list?
combined z-score class: no change with or without drug; viability z-score with doxorubicin: -1.35; viability z-score without drug: -1.18; Outcome: inactive

Which result is listed for Hsd17b8 (hydroxysteroid 17-beta dehydrogenase 8)?
combined z-score class: no change with or without drug; viability z-score with doxorubicin: 0; viability z-score without drug: 0.17; Outcome: inactive

What is on record for Cpq (carboxypeptidase Q)?
combined z-score class: low cell count with doxorubicin only; viability z-score with doxorubicin: -3.04; viability z-score without drug: 0.17; Outcome: active

For Trim21 (tripartite motif-containing 21), how do the results read?
combined z-score class: no change with or without drug; viability z-score with doxorubicin: -1.01; viability z-score without drug: -1.18; Outcome: inactive

What did the screen give for Npas3 (neuronal PAS domain protein 3)?
combined z-score class: no change with or without drug; viability z-score with doxorubicin: 0.11; viability z-score without drug: 0.34; Outcome: inactive

For Abhd4 (abhydrolase domain containing 4), how do the results read?
combined z-score class: no change with or without drug; viability z-score with doxorubicin: 0.45; viability z-score without drug: -0.17; Outcome: inactive

With Foxa1 (forkhead box A1), how do the results read?
combined z-score class: no change with or without drug; viability z-score with doxorubicin: -1.12; viability z-score without drug: 1.18; Outcome: inactive

Which result is listed for Eri1 (exoribonuclease 1)?
combined z-score class: no change with or without drug; viability z-score with doxorubicin: 1.57; viability z-score without drug: 0.51; Outcome: inactive

What is on record for Ensa (endosulfine alpha)?
combined z-score class: no change with or without drug; viability z-score with doxorubicin: 0.45; viability z-score without drug: -0.17; Outcome: inactive

With Pdcd6ip (programmed cell death 6 interacting protein), what was measured?
combined z-score class: no change with or without drug; viability z-score with doxorubicin: -0.45; viability z-score without drug: -0.17; Outcome: inactive

With Mmp20 (matrix metallopeptidase 20 (enamelysin)), what was measured?
combined z-score class: no change with or without drug; viability z-score with doxorubicin: 0.22; viability z-score without drug: 0.84; Outcome: inactive

For Bend5 (BEN domain containing 5), how do the results read?
combined z-score class: no change with or without drug; viability z-score with doxorubicin: 0; viability z-score without drug: 1.35; Outcome: inactive

Which result is listed for Map4k4 (mitogen-activated protein kinase kinase kinase kinase 4)?
combined z-score class: no change with or without drug; viability z-score with doxorubicin: -0.34; viability z-score without drug: 0.84; Outcome: inactive

How did the screen score Ppt2 (palmitoyl-protein thioesterase 2)?
combined z-score class: no change with or without drug; viability z-score with doxorubicin: 0.9; viability z-score without drug: -0.17; Outcome: inactive

4 entries from above, set out differently.
{"gene symbol": "Psmb1 (proteasome (prosome, macropain) subunit, beta type 1)", "reagent no.": 1, "combined z-score class": "low cell count with and without drug", "viability z-score with doxorubicin": -7.31, "viability z-score without drug": -8.77, "Outcome": "inactive"}
{"gene symbol": "Tceanc2", "reagent no.": 1, "combined z-score class": "no change with or without drug", "viability z-score with doxorubicin": -1.46, "viability z-score without drug": 0.51, "Outcome": "inactive"}
{"gene symbol": "Tceanc2", "reagent no.": 2, "combined z-score class": "no change with or without drug", "viability z-score with doxorubicin": -0.11, "viability z-score without drug": -1.01, "Outcome": "inactive"}
{"gene symbol": "2310022A10Rik (RIKEN cDNA 2310022A10 gene)", "reagent no.": 1, "combined z-score class": "no change with or without drug", "viability z-score with doxorubicin": 0.22, "viability z-score without drug": 0.84, "Outcome": "inactive"}
